Reference: PubChem BioAssay AID330 (DTP/NCI, 2004)
The list is a part of this screen's results and no random one: it gathers tests that were run many times, whatever their T/C, doses with no T/C, and many T/C values between a quarter and a half above the control. Further doses and runs are listed elsewhere. T/C gives the treated animals as a percentage of the vehicle group. Some entries give survivors of the animals treated and no T/C: the source files T/C as zero there, which appears to mark a toxic dose or a test without result, not a measured value. Some doses without a T/C left all or most animals alive at the check, yet need not have been tolerated: survival well below the control is almost never listed, so the zero probably covers shortened survival too. Counts of survivors are from the toxicity check (mostly the fifth day) where no day follows; animals may have died later. Schedule codes are those of the source, read here as Q, the interval in days (D) or hours (H), X, the number of doses. Some entries hold several experiments; the values are given in rising order. Some molecules as drawn cover several salts, stereoisomers or complexes of the source; a dose is that of the sample tested. For survival time, this PubChem deposit counts one and a half times the control or more as active, and values a quarter to a half above the control carry no call in these data; other NCI protocols may use other cut-offs. Brackets with × give the number of equal values in this list.

Tested on: P388 leukemia ip, CD2F1 mice, survival T/C
Experiment: NCI In Vivo Anticancer Drug Screen. Data for tumor model P388 Leukemia (intraperitoneal) in CD2F1 (CDF1) mice
Details: T/C endpoint: median survival time, higher T/C = longer survival
[1] = dose: 100.0 mg/kg/injection, schedule: Q01DX009 (ip), vehicle: saline
[2] = dose: 240.0 mg/kg/injection, schedule: Q01DX005 (ip), vehicle: Klucel (hydroxypropylcellulose) (HPC)
[3] = dose: 240.0 mg/kg/injection, schedule: Q01DX005 (ip), vehicle: saline with Tween-80
[4] = dose: 200.0 mg/kg/injection, schedule: Q01DX009 (ip), vehicle: saline with Tween-80
[5] = dose: 25.0 mg/kg/injection, schedule: Q01DX009 (ip), vehicle: saline
[6] = dose: 120.0 mg/kg/injection, schedule: Q01DX005 (ip), vehicle: Klucel (hydroxypropylcellulose) (HPC)
[7] = dose: 200.0 mg/kg/injection, schedule: Q01DX005 (ip), vehicle: saline with Tween-80
[8] = dose: 12.5 mg/kg/injection, schedule: Q01DX009 (ip), vehicle: saline
[9] = dose: 50.0 mg/kg/injection, schedule: Q01DX009 (ip), vehicle: saline
[10] = dose: 50.0 mg/kg/injection, schedule: Q04DX002 (ip), vehicle: saline
[11] = dose: 0.5 mg/kg/injection, schedule: Q01DX005 (ip), vehicle: saline + alcohol
[12] = dose: 50.0 mg/kg/injection, schedule: Q01DX009 (ip), vehicle: saline with Tween-80
[13] = dose: 100.0 mg/kg/injection, schedule: Q01DX009 (ip), vehicle: saline with Tween-80

For `COc1cc(=O)cc2n(-c3cc(OC)c(O)c(OC)c3)c3ccccc3nc1-2`, the survivor count [1] was 6 of 6.
For `O=C(Nc1ccc(Cl)c(Cl)c1)OCc1ccco1`, the survivor count [2] was 6 of 6.
For `O=C(NCCCl)Nc1[nH]c(=O)ncc1I`, the survivor count (dose: 15.0 mg/kg/injection, schedule: Q01DX005 (ip), vehicle: saline with Tween-80) was 0 of 6, the survivor count (dose: 30.0 mg/kg/injection, schedule: Q01DX005 (ip), vehicle: saline with Tween-80) was 0 of 6 and the survivor count (dose: 60.0 mg/kg/injection, schedule: Q01DX005 (ip), vehicle: saline with Tween-80) was 0 of 6. For the same molecule, the survivor count (dose: 120.0 mg/kg/injection, schedule: Q01DX005 (ip), vehicle: saline with Tween-80) was 0 of 6 and the survivor count [3] was 0 of 6.
In the case of `COC(=O)C#CCO`, the survivor count (dose: 100.0 mg/kg/injection, schedule: Q01DX009 (ip), vehicle: water) is reported as 0 of 5 and 3 of 6 and the survivor count (dose: 200.0 mg/kg/injection, schedule: Q01DX009 (ip), vehicle: water) is reported as 0 of 6.
In the case of `CCNc1nn2ccccc2c1/C=C(/C#N)C(=O)OCC`, the survivor count (dose: 400.0 mg/kg/injection, schedule: Q01DX001 (ip), vehicle: saline with Tween-80) is reported as 6 of 6.
For `CCN(CC)CCNc1ccc(COC(=O)OC)c2sc3ccccc3c(=O)c12`, the survivor count (dose: 25.0 mg/kg/injection, schedule: Q01DX005 (ip), vehicle: saline with Tween-80) was 6 of 6 and the survivor count (dose: 50.0 mg/kg/injection, schedule: Q01DX005 (ip), vehicle: saline with Tween-80) was 6 of 6.
For `CC(C)c1[nH]c2ccccc2c1Cn1ccnc1`, the survivor count (dose: 200.0 mg/kg/injection, schedule: Q01DX005 (ip), vehicle: Klucel (hydroxypropylcellulose) (HPC)) was 0 of 5.
For `CSc1ccc(N=C(N)N)cc1`, the survivor count [4] was 2 of 6.
`O=C1C(O)=C(c2ccccc2)C(=O)C(O)=C1c1ccccc1` was tested, and the T/C [5] was 129 and 149 % of control and the survivor count [1] was 0 of 6 and 4 of 6.
`Nc1ccc(-c2cc3ccc(C4=NCCN4)cc3[nH]2)cc1` was tested, and the T/C [6] was 127 % of control and the T/C [2] was 129 % of control.
With `CC(=O)c1cc[c]([Sn]([CH3])([Cl])[c]2ccccc2)cc1` (stereo not given) the survivor count (dose: 30.0 mg/kg/injection, schedule: Q01DX005 (ip), vehicle: Klucel (hydroxypropylcellulose) (HPC)) was 0 of 6, the survivor count [6] was 0 of 6 and the survivor count [2] was 0 of 6.
In the case of `Cc1nc(O)c(-c2ccc(Cl)cc2)c(=O)[nH]1`, the survivor count [3] is reported as 0 of 6.
For `CC1=NN(C(=O)c2ccc(Cl)cc2)C(=O)C1N=Nc1ccc(S(=O)(=O)Nc2ccccn2)cc1` (stereo not given), the survivor count [7] was 6 of 6.
For `CCOC(=O)N(NC(=O)c1ccccc1)C(C)=O`, the survivor count (dose: 100.0 mg/kg/injection, schedule: Q01DX009 (ip), vehicle: other) was 2 of 6 and the survivor count (dose: 200.0 mg/kg/injection, schedule: Q01DX009 (ip), vehicle: other) was 0 of 6.
For `O=C(O)C(Cc1ccccc1)NSc1ccccc1[N+](=O)[O-]` (stereo not given), the survivor count (dose: 400.0 mg/kg/injection, schedule: Q01DX009 (ip), vehicle: distilled water + Tween-80) was 1 of 6 and 3 of 6.
`O=c1oc2nc(-c3ccccc3)[nH]c(=O)c2c(O)c1Cc1ccccc1` was tested, and the survivor count [6] was 4 of 6 and the survivor count [2] was 4 of 6.
In the case of `CC(=O)OCCN1CCN(CCCN2c3ccccc3Sc3ccc(C(F)(F)F)cc32)CC1`, the survivor count [8] is reported as 4 of 6, the survivor count [5] is reported as 3 of 6 and the T/C (dose: 25.0 mg/kg/injection, schedule: Q04DX002 (ip), vehicle: saline) is reported as 127 and 132 % of control. For the same molecule, the survivor count [9] was 0 of 6, the T/C [10] was 143 % of control and the survivor count [10] was 5 of 6. The survivor count (dose: 100.0 mg/kg/injection, schedule: Q04DX002 (ip), vehicle: saline) was 4 of 6, the survivor count (dose: 200.0 mg/kg/injection, schedule: Q04DX002 (ip), vehicle: saline) was 0 of 6 and the survivor count (dose: 400.0 mg/kg/injection, schedule: Q04DX002 (ip), vehicle: saline) was 0 of 6.
For `CC(=O)NC(CSC1(c2ccccc2)c2ccccc2-c2ccccc21)C(=O)O` (stereo not given), the survivor count [2] was 1 of 6.
`CNC(=O)OCc1c(COC(=O)NC)c(C)n(-c2ccc(F)cc2)c1C` was tested, and the T/C [8] was 127 and 142 % of control, the T/C [5] was 145 % of control and the T/C [9] was 133 and 145 % of control.
For `COc1ccccc1N=Nc1cc(S(=O)(=O)O)c2ccccc2c1O`, the survivor count (dose: 400.0 mg/kg/injection, schedule: Q01DX009 (ip), vehicle: saline) was 0 of 6.
`COC(=O)C12OCC34C(CC5C(C)C6=CC(=O)OC6=CC5(C)C3C(O)C1O)OC(=O)C(OC(C)=O)C24` (stereo not given) was tested, and the T/C (dose: 0.06 mg/kg/injection, schedule: Q01DX005 (ip), vehicle: saline + alcohol) was 128 % of control, the survivor count (dose: 0.13 mg/kg/injection, schedule: Q01DX005 (ip), vehicle: saline + alcohol) was 3 of 5 and the survivor count (dose: 0.25 mg/kg/injection, schedule: Q01DX005 (ip), vehicle: saline + alcohol) was 0 of 5. The T/C [11] was 140 % of control, the survivor count [11] was 0 of 5 and the survivor count (dose: 1.0 mg/kg/injection, schedule: Q01DX005 (ip), vehicle: saline + alcohol) was 0 of 5 and 2 of 5. The survivor count (dose: 2.0 mg/kg/injection, schedule: Q01DX005 (ip), vehicle: saline + alcohol) was 1 of 5, the survivor count (dose: 4.0 mg/kg/injection, schedule: Q01DX005 (ip), vehicle: saline + alcohol) was 0 of 5 and the survivor count (dose: 8.0 mg/kg/injection, schedule: Q01DX005 (ip), vehicle: saline + alcohol) was 0 of 5. The T/C (dose: 73.5 mg/kg/injection, schedule: Q01DX005 (ip), vehicle: Klucel (hydroxypropylcellulose) (HPC)) was 127 % of control.
In the case of `[C-]#[O+].[Cl][Ru]([Cl])([Cl])([Cl])[Cl]`, the survivor count (dose: 100.0 mg/kg/injection, schedule: Q04DX003 (ip), vehicle: water) is reported as 6 of 6 and the survivor count (dose: 200.0 mg/kg/injection, schedule: Q04DX003 (ip), vehicle: water) is reported as 5 of 6.
With `OC1(C#Cc2ccccc2)c2ccccc2C(O)(C#Cc2ccccc2)c2c(C#Cc3ccccc3)cccc21` (stereo not given) the survivor count [12] was 6 of 6 and the survivor count [13] was 6 of 6.
With `CN(C)CC(CN(C)C)C(=O)c1ccc(Oc2ccccc2)cc1` the survivor count (dose: 30.0 mg/kg/injection, schedule: Q01DX005 (ip), vehicle: saline) was 4 of 6, the survivor count (dose: 60.0 mg/kg/injection, schedule: Q01DX005 (ip), vehicle: saline) was 0 of 6 and the survivor count (dose: 120.0 mg/kg/injection, schedule: Q01DX005 (ip), vehicle: saline) was 0 of 6. For the same molecule, the survivor count (dose: 240.0 mg/kg/injection, schedule: Q01DX005 (ip), vehicle: saline) was 0 of 6.
`CN1CCC(=C2c3ccccc3Oc3ncccc32)CC1` was tested, and the survivor count [13] was 2 of 6 and the survivor count [4] was 0 of 6.
In the case of `C=Cc1cncc2c1CCOC2=O`, the survivor count (dose: 15.0 mg/kg/injection, schedule: Q01DX005 (ip), vehicle: Klucel (hydroxypropylcellulose) (HPC)) is reported as 6 of 6.
In the case of `C=C(C)C(=NC(C)(C)C)Nc1ccccc1`, the T/C (dose: 20.0 mg/kg/injection, schedule: Q01DX005 (ip), vehicle: saline) is reported as 134 % of control, the survivor count (dose: 25.0 mg/kg/injection, schedule: Q01DX009 (ip), vehicle: saline with Tween-80) is reported as 6 of 6 and the T/C (dose: 40.0 mg/kg/injection, schedule: Q01DX005 (ip), vehicle: saline) is reported as 147 % of control. For the same molecule, the T/C (dose: 50.0 mg/kg/injection, schedule: Q01DX005 (ip), vehicle: saline) was 135 % of control, the T/C [12] was 125 % of control (2×) and the T/C (dose: 80.0 mg/kg/injection, schedule: Q01DX005 (ip), vehicle: saline) was 142 % of control. For the same molecule, the T/C [13] was 134 and 148 % of control, the survivor count (dose: 200.0 mg/kg/injection, schedule: Q01DX005 (ip), vehicle: saline) was 0 of 6 and the survivor count [4] was 3 of 6.
For `Cc1cccc(Cl)c1NC(=O)CSCCN(C)C`, the survivor count [2] was 0 of 6.
For `C#CCOC(=O)c1ccc(C(=O)OCC#C)cc1`, the survivor count (dose: 400.0 mg/kg/injection, schedule: Q04DX003 (ip), vehicle: saline with Tween-80) was 4 of 6.
For `CC(NNC(=S)N1CCCC1)c1ccccn1` (stereo not given), the survivor count [7] was 1 of 5.
